Laboratory results as given in patent US7252824B2 (Mannkind Corporation, priority 2001, dated 2007).

Assay: peptide made by a vendor
Settings: whole synthesis

SSIEGNYTLRVDCTPLMYSLVHLTKEL
purity (crude or final not stated): purity>95%

Plain letter strings leave the end groups untold.
